Source: patent US20190264189A1
These are yes or no findings as the source states them, for the method shown. Binding seen in cells or lysates may run through a third protein. Some results given as binding are weak or reduced against the parent protein; the word gives no strength.

Protein sequences, listed by entry. Tags and fused reporters are not part of them. Lines headed by an entry give the natural chain unless they say otherwise; changes in a name come on top.
UniProt Q01341: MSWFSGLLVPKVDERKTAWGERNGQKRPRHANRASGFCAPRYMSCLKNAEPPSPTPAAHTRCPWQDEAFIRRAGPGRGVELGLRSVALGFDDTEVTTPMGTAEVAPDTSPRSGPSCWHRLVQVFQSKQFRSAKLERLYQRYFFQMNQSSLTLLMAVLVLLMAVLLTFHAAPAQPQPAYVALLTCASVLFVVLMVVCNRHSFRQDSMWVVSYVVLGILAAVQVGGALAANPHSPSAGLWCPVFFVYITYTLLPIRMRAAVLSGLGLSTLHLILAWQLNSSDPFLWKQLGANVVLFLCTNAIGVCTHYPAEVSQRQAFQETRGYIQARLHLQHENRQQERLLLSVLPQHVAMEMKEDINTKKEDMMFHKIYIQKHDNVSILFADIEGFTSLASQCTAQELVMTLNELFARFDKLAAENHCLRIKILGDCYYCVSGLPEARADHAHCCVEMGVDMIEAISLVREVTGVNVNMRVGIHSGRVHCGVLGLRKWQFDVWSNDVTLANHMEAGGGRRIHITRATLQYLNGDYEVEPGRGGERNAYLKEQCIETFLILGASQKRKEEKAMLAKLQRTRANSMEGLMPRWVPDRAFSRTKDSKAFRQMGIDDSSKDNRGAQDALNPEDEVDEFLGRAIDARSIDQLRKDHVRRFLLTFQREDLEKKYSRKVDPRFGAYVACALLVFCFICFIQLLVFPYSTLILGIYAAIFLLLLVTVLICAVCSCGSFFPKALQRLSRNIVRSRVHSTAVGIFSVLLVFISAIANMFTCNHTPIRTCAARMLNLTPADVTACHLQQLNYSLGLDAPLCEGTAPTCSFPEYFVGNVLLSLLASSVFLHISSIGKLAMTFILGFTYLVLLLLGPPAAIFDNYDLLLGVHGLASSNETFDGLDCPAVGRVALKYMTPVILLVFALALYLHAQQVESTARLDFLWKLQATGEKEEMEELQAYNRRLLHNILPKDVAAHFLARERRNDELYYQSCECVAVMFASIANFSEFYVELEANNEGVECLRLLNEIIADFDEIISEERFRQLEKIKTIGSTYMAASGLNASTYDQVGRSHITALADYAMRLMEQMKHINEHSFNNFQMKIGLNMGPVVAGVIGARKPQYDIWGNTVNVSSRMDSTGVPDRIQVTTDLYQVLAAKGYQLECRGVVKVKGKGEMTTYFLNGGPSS

Experiments:
aB-crystallin (CryAB) [1] = molecular target: T1, aB-crystallin (CryAB) (UniProt P23928); assay: co-immunoprecipitation
T1 sequence (looked up): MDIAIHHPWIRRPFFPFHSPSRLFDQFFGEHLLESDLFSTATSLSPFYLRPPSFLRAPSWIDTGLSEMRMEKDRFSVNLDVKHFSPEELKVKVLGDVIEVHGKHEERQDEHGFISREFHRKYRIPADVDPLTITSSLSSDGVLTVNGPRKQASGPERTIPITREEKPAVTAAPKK

aB-crystallin (CryAB) [2] = molecular target: T1, aB-crystallin (CryAB); assay: co-immunoprecipitation and immunoblotting, cardiac myocytes after C1C2 gene transfer
aB-crystallin (CryAB) [3] = molecular target: T1, aB-crystallin (CryAB); assay: reciprocal co-immunoprecipitation and immunoblotting, cultured cardiac myocytes after adenovirus-mediated C1C2 gene transfer

Measured: binding

C1C2 fusion protein (cytoplasmic domains C1 and C2 of mouse adenylyl cyclase type 6 joined by a 12-amino-acid linker, C-terminal AU1 epitope tag) (from UniProt Q01341 350-1157 at identity 1.00))
binds: all assays above
